From patent US20050176933A1
No constants are given. Whether binding was seen depends on the method and setting. Binding calls can cover weak binding; strength is not graded here.

Sequences of proteins named here, by UniProt entry; tags and fusion partners are left off. A change or cut given only in a name is not applied to a line headed by its entry.
UniProt P35613: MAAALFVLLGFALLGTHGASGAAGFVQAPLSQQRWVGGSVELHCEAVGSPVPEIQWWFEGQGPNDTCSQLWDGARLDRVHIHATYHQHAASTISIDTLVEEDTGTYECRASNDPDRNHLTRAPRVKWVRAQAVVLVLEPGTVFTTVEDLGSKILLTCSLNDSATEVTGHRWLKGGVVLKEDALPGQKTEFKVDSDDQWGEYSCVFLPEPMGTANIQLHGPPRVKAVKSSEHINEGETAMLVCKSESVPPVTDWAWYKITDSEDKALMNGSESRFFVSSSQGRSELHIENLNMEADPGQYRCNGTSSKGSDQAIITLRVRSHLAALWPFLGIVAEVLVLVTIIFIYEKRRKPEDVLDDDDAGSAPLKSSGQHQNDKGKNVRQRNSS

Target: hepatoma-associated antigen HAb18G on hepatocarcinoma cell line HHCC (human) (UniProt P35613)
Assay: immuno-fluorescence staining of HHCC cells; McAb HAb18 as positive control

binding: binds
B1: murine anti-human hepatoma McAb HAb18 (antibody, mouse IgG1, V domains shown)
VH: EVKLEESGGGLVQPGGSMKLSCVASGFTFSDAWMDWVRQSPEKGLEWVAEIRSKANNHAPYYTESVKGRFTISRDDSKSIIYLQMNNLRAEDTGIYYCTRDSTATHWGQGTLVTVSS
VL: SIVMTQTPTFLVVSAGDRVTITCKASQSVINDVAWYQQKPGQSPKLLIFYASNRNTGVPDRFTGSGYGTDFTFTISTVQAEDLAVYFCQQDYSPPFTFGSGTKLEIK
modifications: HRP-labelled in the competitive ELISAs
